Results are given in words; binding and its absence hold for the method and conditions named. Binding seen in cells or lysates may run through a third protein. Some entries that bind do so weakly or less than the wild type. For some assays here: Sequences can lack the tags named with a protein.
T1: Flag-DCLK1 (doublecortin-like kinase 1) (UniProt O15075)
T1 sequence: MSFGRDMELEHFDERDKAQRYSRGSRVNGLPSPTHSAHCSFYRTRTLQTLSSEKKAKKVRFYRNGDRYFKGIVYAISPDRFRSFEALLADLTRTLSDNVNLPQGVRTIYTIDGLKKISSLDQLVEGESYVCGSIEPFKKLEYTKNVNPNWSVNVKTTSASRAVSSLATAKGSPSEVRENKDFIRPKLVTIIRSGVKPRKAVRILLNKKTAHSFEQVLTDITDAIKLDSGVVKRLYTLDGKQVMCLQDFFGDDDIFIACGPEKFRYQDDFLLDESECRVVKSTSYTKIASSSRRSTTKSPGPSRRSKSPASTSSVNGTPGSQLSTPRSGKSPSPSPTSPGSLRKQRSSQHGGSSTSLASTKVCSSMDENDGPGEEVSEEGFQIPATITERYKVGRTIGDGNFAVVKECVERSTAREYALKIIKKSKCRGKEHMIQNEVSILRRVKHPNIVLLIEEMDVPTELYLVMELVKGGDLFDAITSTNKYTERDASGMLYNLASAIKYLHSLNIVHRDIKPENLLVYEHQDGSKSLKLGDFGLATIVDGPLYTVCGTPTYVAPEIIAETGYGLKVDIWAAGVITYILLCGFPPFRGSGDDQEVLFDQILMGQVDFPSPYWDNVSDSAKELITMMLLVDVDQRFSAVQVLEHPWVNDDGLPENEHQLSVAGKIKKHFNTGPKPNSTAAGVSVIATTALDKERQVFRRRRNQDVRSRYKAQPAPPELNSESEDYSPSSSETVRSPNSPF

T2: DCLK1 (endogenous in mouse primary peritoneal macrophages) (mouse (endogenous in MPMs)) (UniProt Q9JLM8)
T2 sequence: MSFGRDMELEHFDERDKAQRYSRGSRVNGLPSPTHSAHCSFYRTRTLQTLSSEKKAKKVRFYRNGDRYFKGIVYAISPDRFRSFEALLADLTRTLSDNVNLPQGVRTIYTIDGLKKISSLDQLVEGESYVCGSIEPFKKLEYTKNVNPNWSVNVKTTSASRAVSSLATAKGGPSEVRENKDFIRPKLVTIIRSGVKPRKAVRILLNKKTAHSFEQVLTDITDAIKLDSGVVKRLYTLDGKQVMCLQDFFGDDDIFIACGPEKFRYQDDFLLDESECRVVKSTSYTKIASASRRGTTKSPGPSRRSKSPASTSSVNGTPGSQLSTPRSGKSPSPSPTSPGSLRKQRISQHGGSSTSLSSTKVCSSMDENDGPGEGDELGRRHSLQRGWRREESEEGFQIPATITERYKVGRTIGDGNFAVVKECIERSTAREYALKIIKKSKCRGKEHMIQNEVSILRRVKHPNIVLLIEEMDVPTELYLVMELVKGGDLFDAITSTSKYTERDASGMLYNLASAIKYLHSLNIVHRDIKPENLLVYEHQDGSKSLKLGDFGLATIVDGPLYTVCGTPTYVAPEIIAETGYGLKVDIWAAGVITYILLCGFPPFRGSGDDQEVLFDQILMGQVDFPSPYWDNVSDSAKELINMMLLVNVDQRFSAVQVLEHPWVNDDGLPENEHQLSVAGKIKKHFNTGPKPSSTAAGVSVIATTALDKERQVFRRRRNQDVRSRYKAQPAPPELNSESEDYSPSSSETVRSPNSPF

B1: IKKβ (endogenous in 293T cells) (protein, UniProt O14920 1-756)
chain: MSWSPSLTTQTCGAWEMKERLGTGGFGNVIRWHNQETGEQIAIKQCRQELSPRNRERWCLEIQIMRRLTHPNVVAARDVPEGMQNLAPNDLPLLAMEYCQGGDLRKYLNQFENCCGLREGAILTLLSDIASALRYLHENRIIHRDLKPENIVLQQGEQRLIHKIIDLGYAKELDQGSLCTSFVGTLQYLAPELLEQQKYTVTVDYWSFGTLAFECITGFRPFLPNWQPVQWHSKVRQKSEVDIVVSEDLNGTVKFSSSLPYPNNLNSVLAERLEKWLQLMLMWHPRQRGTDPTYGPNGCFKALDDILNLKLVHILNMVTGTIHTYPVTEDESLQSLKARIQQDTGIPEEDQELLQEAGLALIPDKPATQCISDGKLNEGHTLDMDLVFLFDNSKITYETQISPRPQPESVSCILQEPKRNLAFFQLRKVWGQVWHSIQTLKEDCNRLQQGQRAAMMNLLRNNSCLSKMKNSMASMSQQLKAKLDFFKTSIQIDLEKYSEQTEFGITSDKLLLAWREMEQAVELCGRENEVKLLVERMMALQTDIVDLQRSPMGRKQGGTLDDLEEQARELYRRLREKPRDQRTEGDSQEMVRLLLQAIQSFEKKVRVIYTQLSKTVVCKQKALELLPKVEEVVSLMNEDEKTVVRLQEKRQKELWNLLKIACSKVRGPVSGSPDSMNASRLSQPGQLMSQPSTASNSLPEPAKKSEELVAEAHNLCTLLENAIQDTVREQDQSFTALDWSWLQTEEEEHSCLEQAS
B2: IKKβ (endogenous in mouse primary peritoneal macrophages) (protein, UniProt O88351 1-757)
chain: MSWSPSLPTQTCGAWEMKERLGTGGFGNVIRWHNQATGEQIAIKQCRQELSPKNRNRWCLEIQIMRRLNHPNVVAARDVPEGMQNLAPNDLPLLAMEYCQGGDLRRYLNQFENCCGLREGAVLTLLSDIASALRYLHENRIIHRDLKPENIVLQQGEKRLIHKIIDLGYAKELDQGSLCTSFVGTLQYLAPELLEQQKYTVTVDYWSFGTLAFECITGFRPFLPNWQPVQWHSKVRQKSEVDIVVSEDLNGAVKFSSSLPFPNNLNSVLAERLEKWLQLMLMWHPRQRGTDPQYGPNGCFRALDDILNLKLVHVLNMVTGTVHTYPVTEDESLQSLKTRIQENTGILETDQELLQKAGLVLLPDKPATQCISDSKTNEGLTLDMDLVFLLDNSKINYETQITPRPPPESVSCILQEPKRNLSFFQLRKVWGQVWHSIQTLKEDCNRLQQGQRAAMMSLLRNNSCLSKMKNAMASTAQQLKAKLDFFKTSIQIDLEKYKEQTEFGITSDKLLLAWREMEQAVEQCGRENDVKHLVERMMALQTDIVDLQRSPMGRKQGGTLDDLEEQARELYRKLREKPRDQRTEGDSQEMVRLLLQAIQSFEKKVRVIYTQLSKTVVCKQKALELLPKVEEVVSLMNEDERTVVRLQEKRQKELWNLLKIACSKVRGPVSGSPDSMNVSRLSHPGQLMSQPSSACDSLPESDKKSEELVAEAHALCSRLESALQDTVKEQDRSFTTLDWSWLQMEDEERCSLEQACD

Assays:
[1] = biological target: T1, Flag-DCLK1 (doublecortin-like kinase 1); experiment: co-IP; 293T cells transfected with Flag-DCLK1; Flag-DCLK1 immunoprecipitated by anti-Flag antibody (4°C overnight, Protein A+G agarose), blot for IKKβ; IgG control
[2] = biological target: T2, DCLK1 (endogenous in mouse primary peritoneal macrophages) (mouse (endogenous in MPMs)); experiment: co-IP; endogenous proteins in MPMs challenged with oxLDL (50 μg/ml) for 1 h; DCLK1 immunoprecipitated by anti-DCLK1 antibody (4°C overnight, Protein A+G agarose), blot for IKKβ

| Binder | binding [1] | binding [2] |
| --- | --- | --- |
| B1 | binds | – |
| B2 | – | binds |

Reference: article PMC10165355
